# According to publication PMC5996148:
# The other results are listed elsewhere or left out. For some assays here: The exact form of the protein is not confirmed.
# Assays:
# Assay in all cases: protein microarray (ProtoArray v5.0), streptavidin-Alexa Fluor 647
# Conditions in all cases: 3'-biotin; 20 mM Tris (pH 7.5), 5 mM MgCl2, 100 mM KCl, 0.1% Tween-20, A/T-rich and random oligonucleotide blockers; temperature not stated; high values mean tight binding
# [1] = tested on: PHGDH (human)
# [2] = tested on: PIM2 (human)
# [3] = tested on: PIPOX (human)
# [4] = tested on: PITPNC1 (human)
# [5] = tested on: PKIB (human)
# [6] = tested on: PKNOX1 (human)
# [7] = target: PLA2G7 (UniProt Q13093)
# [8] = tested on: PLS3 (human)
# [9] = tested on: PLXDC1 (human)
# [10] = target: POLB (UniProt P06746)
# [11] = tested on: POLE3 (human)
# [12] = tested on: POLR2I (human)
# [13] = tested on: PPAP2B (human)
# [14] = tested on: PPM1A (human)
# [15] = tested on: PPP1R16B (human)
# [16] = tested on: PPP1R2 (human)
# [17] = tested on: PPP2R2C (human)
# [18] = tested on: PPP3R2 (human)
# [19] = target: T1, PPT1 (UniProt P50897)
# T1 sequence: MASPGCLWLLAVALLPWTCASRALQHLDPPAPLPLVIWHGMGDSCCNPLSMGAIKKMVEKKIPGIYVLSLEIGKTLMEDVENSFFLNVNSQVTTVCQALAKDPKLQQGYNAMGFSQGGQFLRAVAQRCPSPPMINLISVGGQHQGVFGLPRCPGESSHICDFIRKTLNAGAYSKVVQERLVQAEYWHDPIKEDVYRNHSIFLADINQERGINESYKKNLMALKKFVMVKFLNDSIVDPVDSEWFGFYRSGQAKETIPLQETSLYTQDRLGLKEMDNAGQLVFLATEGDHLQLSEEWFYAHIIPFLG
# [20] = tested on: PPT2 (human)
sequence,measurement,setting,value
GGGGACAGGGGTATGGGGAGGGG [G4-3 biotinylated (CtG)],binding signal,[1],-0.331 z-score
same,binding signal,[2],-0.332 z-score
same,binding signal,[3],-0.321 z-score
same,binding signal,[4],-0.327 z-score
same,binding signal,[5],-0.329 z-score
same,binding signal,[6],-0.324 z-score
same,binding signal,[7],-0.311 z-score
same,binding signal,[8],-0.333 z-score
same,binding signal,[9],-0.32 z-score
same,binding signal,[10],5.02 z-score
same,binding signal,[11],-0.335 z-score
same,binding signal,[12],-0.335 z-score
same,binding signal,[13],-0.306 z-score
same,binding signal,[14],-0.318 z-score
same,binding signal,[15],-0.28 z-score
same,binding signal,[16],-0.328 z-score
same,binding signal,[17],-0.321 z-score
same,binding signal,[18],-0.33 z-score
same,binding signal,[19],-0.326 z-score
same,binding signal,[20],-0.332 z-score

# A stretch taken from the entries so far:
sequence,measurement,setting,value
GGGGACAGGGGTATGGGGAGGGG [G4-3 biotinylated (CtG)],binding signal,[2],-0.332 z-score
same,binding signal,[3],-0.321 z-score
